Here are results for 1 molecule from article doi:10.1101/2023.07.26.549647.

This assay deals with T1, FLAG-BirA*-TBCCD1 (human TBCC domain-containing protein 1) (human) (UniProt Q9NVR7).
T1 sequence: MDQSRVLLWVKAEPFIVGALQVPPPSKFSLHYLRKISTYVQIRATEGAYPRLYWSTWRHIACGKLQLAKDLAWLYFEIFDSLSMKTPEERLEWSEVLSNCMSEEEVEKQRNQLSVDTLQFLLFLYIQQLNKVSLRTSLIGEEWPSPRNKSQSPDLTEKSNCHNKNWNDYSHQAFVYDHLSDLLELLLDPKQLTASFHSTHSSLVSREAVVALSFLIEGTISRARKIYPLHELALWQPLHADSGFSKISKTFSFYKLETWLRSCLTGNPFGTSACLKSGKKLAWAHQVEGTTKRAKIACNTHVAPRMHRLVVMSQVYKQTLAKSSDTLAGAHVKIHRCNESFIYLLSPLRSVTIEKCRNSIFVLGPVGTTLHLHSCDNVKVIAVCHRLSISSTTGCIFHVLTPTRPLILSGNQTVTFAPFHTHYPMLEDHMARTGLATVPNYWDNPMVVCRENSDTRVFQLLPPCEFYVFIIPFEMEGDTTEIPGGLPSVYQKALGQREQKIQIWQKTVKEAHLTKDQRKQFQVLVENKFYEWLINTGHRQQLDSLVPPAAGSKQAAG
The assay is described as follows: proximity labelling.

Results are given in words; binding and its absence hold for the method and conditions named. Binding seen in cells or lysates may run through a third protein. These calls come from enrichment with a bait or labelling near it, and not all partners need be listed. Tags and fused reporters may be left off the sequences shown.

B1: CEP162 (protein, UniProt Q5TB80 1-1403)
chain: MANCSQEELDEEFEQFMKELSDDSFENSDKTARQSKKEMKKKDTVPWWITEDDFKDDGLLGTNVSYLKTKKTSQPVMEIEEESAEKIQFLKSSGTSLLSTDSLETNELVVSELNHSSLGVGLDTLEEQEEKEQFFARLEKGLTSSIDYSRLNKELDSNDSTHFKALHSNQANAELTDDEHENESKHEELAENYSDDFEDEYVGAPLTTKDEEMPSKENSKSEKISVPKQEEEKTGMLANVVLLDSLDSVAEVNLDEQDKITPKPRCLPEMTENEMTGTGVSYGQSSSDVEALHQAYCHIAHSLGDEDKQKIESNTVEDIKSSVKGHPQENEENSKNISTMESDLPTVEELMKPIRIDSFGISGFDLQPVSSEKVAERKETEFFSSLPLKMNPNILSQDSQHVNLFFDKNDENVILQKTTNESMENSCPQVTEVTATEEHVDKMYLNILRKKITVNSSSLSQDDKINKTYRSQLSSEEEGAVMGKQVPYKKARSAPPLLKRKPQSGLYASVRSSGYGKPSSPLKMFSTLEKKTSEDIIKSKNLRSISTSNQPRKKEILSGTKLIKPAALDKPAHKTESCLSTRKKSENPTETDSCIQFQTDSLGYCGENKEKKLLMFKRVQEAEDKWRGAQALIEQIKATFSEKEKELENKLEELKKQQEKELFKLNQDNYILQAKLSSFEETNKKQRWLHFGEAADPVTGEKLKQIQKEIQEQETLLQGYQQENERLYNQVKDLQEQNKKNEERMFKENQSLFSEVASLKEQMHKSRFLSQVVEDSEPTRNQNFTDLLAELRMAQKEKDSLLEDIKRLKQDKQALEVDFEKMKKERDQAKDQIAYVTGEKLYEIKILEETHKQEISRLQKRLQWYAENQELLDKDALRLREANEEIEKLKLEIEKLKAESGNPSIRQKIRLKDKAADAKKIQDLERQVKEMEGILKRRYPNSLPALILAASAAGDTVDKNTVEFMEKRIKKLEADLEGKDEDAKKSLRTMEQQFQKMKIQYEQRLEQQEQLLACKLNQHDSPRIKALEKELDDIKEAHQITVRNLEAEIDVLKHQNAELDVKKNDKDDEDFQSIEFQVEQAHAKAKLVRLNEELAAKKREIQDLSKTVERLQKDRRMMLSNQNSKGREEMSAKRAKKDVLHSSKGNANSFPGTLDSKLYQPHTFTDSHVSEVLQENYRLKNELEGLISEKNELKMKSEAVMNQFENSMRRVKEDTAAHIASLKASHQREIEKLLCQNAVENSSSKVAELNRKIATQEVLIRHFQSQVNELQSKQESLVVSEVREEILQKEITKLLEELREAKENHTPEMKHFVGLEKKIKQMEMRHAQREQELQQIIQQTHQVVETEQNKEVEKWKRLAQLKNRELEKFRTELDSILDVLRELHRQGVVVPVAFADEMNAPEY
Regarding B1, the binding entry is reported as “binds”.
